Results are given in words; binding and its absence hold for the method and conditions named. Binding seen in cells or lysates may run through a third protein. Some binding calls cover weakened binding; strength is not graded here.

Protein sequences, listed by entry. Tags and fused reporters are not part of them.
UniProt Q8N6T7: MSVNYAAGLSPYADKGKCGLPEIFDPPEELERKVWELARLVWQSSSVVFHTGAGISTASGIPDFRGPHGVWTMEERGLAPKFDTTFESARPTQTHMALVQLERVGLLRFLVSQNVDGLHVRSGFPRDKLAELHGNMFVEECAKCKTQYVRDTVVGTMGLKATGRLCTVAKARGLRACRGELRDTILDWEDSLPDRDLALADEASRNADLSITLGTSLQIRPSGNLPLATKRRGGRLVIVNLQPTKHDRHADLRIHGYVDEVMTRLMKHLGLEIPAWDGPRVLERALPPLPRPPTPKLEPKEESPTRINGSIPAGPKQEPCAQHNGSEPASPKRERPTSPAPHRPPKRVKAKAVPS
UniProt O95863: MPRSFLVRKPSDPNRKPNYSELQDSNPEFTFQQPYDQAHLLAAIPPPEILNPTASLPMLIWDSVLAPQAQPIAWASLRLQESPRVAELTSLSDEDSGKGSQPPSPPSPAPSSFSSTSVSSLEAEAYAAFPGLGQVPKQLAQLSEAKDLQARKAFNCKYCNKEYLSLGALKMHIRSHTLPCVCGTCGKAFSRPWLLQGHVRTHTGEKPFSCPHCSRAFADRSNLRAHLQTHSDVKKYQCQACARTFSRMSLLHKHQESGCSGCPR
UniProt P84022: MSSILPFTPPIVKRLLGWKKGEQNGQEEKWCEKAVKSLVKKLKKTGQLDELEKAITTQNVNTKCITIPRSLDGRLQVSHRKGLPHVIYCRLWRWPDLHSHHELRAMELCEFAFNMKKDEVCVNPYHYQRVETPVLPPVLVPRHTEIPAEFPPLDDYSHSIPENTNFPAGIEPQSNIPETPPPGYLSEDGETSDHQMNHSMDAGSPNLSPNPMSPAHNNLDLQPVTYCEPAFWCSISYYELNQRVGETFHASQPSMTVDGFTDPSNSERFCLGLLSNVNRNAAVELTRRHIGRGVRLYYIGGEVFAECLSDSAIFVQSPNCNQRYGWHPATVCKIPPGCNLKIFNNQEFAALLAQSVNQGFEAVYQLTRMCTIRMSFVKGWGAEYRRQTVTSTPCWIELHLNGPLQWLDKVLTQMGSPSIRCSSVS

The target of assay [1] is Sirtuin 6 (human (endogenous in A549)) (UniProt Q8N6T7). Put plainly: co-IP; A549 cells treated with or without TGF-β1 (5 ng/ml) for 15 and 60 min; 400 μg total protein (NP-40 lysis buffer) precipitated with rabbit anti-Sirt6 antibody on protein G magnetic beads, Western blot. Background: In western blotting, separated proteins are transferred to a membrane and probed.
In assay [2] the target is Snail1 (human (endogenous in A549)) (UniProt O95863). In words: condition: only with Sirt6 overexpression (ad-Sirt6); co-IP; A549 cells overexpressing wild-type Sirt6 (ad-Sirt6), with TGF-β1 (5 ng/ml) for 24 h; total protein precipitated with rabbit anti-Snail1 antibody on protein G magnetic beads, Western blot.
Assay [3] has the same target. In words: co-IP; A549 cells transfected with ad-GFP or ad-H133Y (catalytically inactive Sirt6), with or without TGF-β1 (5 ng/ml) for 24 h; total protein precipitated with rabbit anti-Snail1 antibody on protein G magnetic beads, Western blot.

As to Smad3 (from UniProt P84022 1-425), the binding result in assay [1] was “binds”; in assay [2] it was “no binding”; in assay [3], “binds”.

Take Snail1 (from UniProt O95863 1-264): the binding entry in assay [1] was “binds”.

These data come from paper PMC5617402.
